# Reference: PubChem BioAssay AID1259307 (Sanger Institute, 2017)
# Test: 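siRNA kinome screen seeking kinases whose loss harms SW620 cells alone or with drugs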 (primary screen)
# Cell system: SW620 colorectal cancer cells
# Reagent: siRNA pool against human genes
# Conditions: anchor drugs BYL719 at 1 µM, cetuximab at 5 µg/ml or trametinib at 10 nM, each beside a DMSO vehicle arm
# Measured: 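Per-well viability versus non-targeting control pool, replicate-averaged, robust z-score from controls; synergy scores for BYL719 1 µM, cetuximab 5 µg/ml, trametinib 10 nM against DMSO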
# Scale: viability robust z-score, no drug and viability vs control, no drug: higher = more viable cells; synergy score with BYL719 and synergy score with cetuximab: higher = stronger synthetic lethality with the drug
# Hit rule: 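a knock-down counts as lethal alone if its drug-free robust viability z-score is lower than -3, regardless of synergy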
# Meaning of the calls: active = essential (lethal alone); inactive = no change alone
# In all, the deposit lists 794 reagents; this is an unselected part. In the full data, 15 (1.9%) are marked active. 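Calls reflect lethality without any drug; synergy scores did not enter the calls.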 Entries without a mark were called inactive. No viability above 1 is reported: the scale is capped. Further read-outs or replicates are left out here. Not given: the amount of reagent, the time to read-out.
gene,"viability robust z-score, no drug","viability vs control, no drug",synergy score with BYL719,synergy score with cetuximab
STK11 (GeneID 6794),-1.01,0.839,-0.0109,0.0542
ACVR1 (GeneID 90),0.551,0.983,0.0154,0.118
PAPSS1 (GeneID 9061),0.736,1,-0.0217,0
STK17B (GeneID 9262),0.153,0.946,0.0173,-0.0538
COASY (GeneID 80347),-0.904,0.849,0.0176,0.0619
DGKI (GeneID 9162),0.736,1,-0.0919,0
CAMKK1 (GeneID 84254),0.736,1,-0.0308,0.0259
PRKD3 (GeneID 23683),0.245,0.955,0.0471,0.0617
ULK4 (GeneID 54986),0.233,0.954,0.0368,0.102
PRKAB2 (GeneID 5565),0.242,0.954,0.0493,0.0483
MYLK4 (GeneID 340156),-0.235,0.91,0.0955,0.103
WT1 (GeneID 7490),0.536,0.981,-0.109,0.0136
EFNA3 (GeneID 1944),0.736,1,-0.0408,0.0759
MST1R (GeneID 4486),0.736,1,0.0274,0
INSR (GeneID 3643),-0.226,0.911,-0.000594,-0.00832
XYLB (GeneID 9942),-0.214,0.912,-0.054,0.00327
TAOK2 (GeneID 9344),0.736,1,-0.0491,0.0133
STK33 (GeneID 65975),-0.108,0.922,-0.0791,-0.0716
MGA (GeneID 23269),-0.0993,0.923,0.0182,0.0493
MAPK4 (GeneID 5596),0.736,1,0.00899,0.127
CDK18 (GeneID 5129),-0.877,0.851,0.046,0.129
ATR (GeneID 545),0.736,1,-0.0919,0
PIP5KL1 (GeneID 138429),0.422,0.971,0.117,-0.0252
GRK4 (GeneID 2868),-0.255,0.909,-0.0529,-0.0892
PIK3CB (GeneID 5291),-0.502,0.886,-0.106,-0.107
PRP4K (GeneID 8899),-0.937,0.846,-0.00254,0.0139
SGK1 (GeneID 6446),0.736,1,-0.0763,0
ZAP70 (GeneID 7535),0.138,0.945,-0.0198,-0.0131
TRPM6 (GeneID 140803),0.736,1,-0.0496,0
CAMK4 (GeneID 814),-0.65,0.872,-0.0858,-0.128
GUCY2D (GeneID 3000),-4.51 (active),0.516,0.0281,0.101
CKS1B (GeneID 1163),-1.26,0.815,-0.0845,-0.18
PI4KA (GeneID 5297),0.736,1,-0.0811,0
ITPK1 (GeneID 3705),-0.66,0.871,-0.209,-0.119

In a second layout: entries from further up.
gene | viability robust z-score, no drug | viability vs control, no drug | synergy score with BYL719 | synergy score with cetuximab
CAMKK1 (GeneID 84254) | 0.736 | 1 | -0.0308 | 0.0259
PRKD3 (GeneID 23683) | 0.245 | 0.955 | 0.0471 | 0.0617
ULK4 (GeneID 54986) | 0.233 | 0.954 | 0.0368 | 0.102
PRKAB2 (GeneID 5565) | 0.242 | 0.954 | 0.0493 | 0.0483
MYLK4 (GeneID 340156) | -0.235 | 0.91 | 0.0955 | 0.103
WT1 (GeneID 7490) | 0.536 | 0.981 | -0.109 | 0.0136
